PubChem BioAssay AID652259 – Drosophila RNAi Screening Center, 2013

- Screen: 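Identify new Wingless signalling regulators in fly cells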 (primary screen)
- Cell system: Drosophila clone 8 imaginal disc epithelial cells
- Knock-down reagent: long dsRNA against Drosophila genes
- Challenge: pathway stimulated by co-transfected Wingless expression plasmid
- Detection: 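Firefly luciferase from a tcf-site Wingless reporter, measured alongside co-transfected Renilla luciferase that tracks transfection; pathway stimulated by a Wingless plasmid; the firefly-to-Renilla ratio is not deposited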
- Scale: firefly reporter light: higher = more Wg reporter light, before normalisation; Renilla control light: higher = more transfected or surviving cells
- Rule for the call: 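a knock-down is a candidate when at least two out of four statistical tests show it departing from its plate mean; one test alone signals a weak candidate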
- Meaning of the calls: active = candidate regulator (raises or lowers reporter); inactive = not a candidate
The screen tested about 22,000 reagents; below is a random part of those that have a named target and a result. In the full data, 233 (1.1%) got an active call. 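Light values are raw, unnormalised plate reads; the ratio scores behind the reporter calls were not deposited.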 The numbers tell different reagents against one gene apart. Names joined by + are all predicted targets of the reagent. Not stated in the record: the amount of reagent, the time to read-out, the dose of the treatment.

lectin-24A
- firefly reporter light, replicate 1: 1986
- firefly reporter light, replicate 2: 5025
- Renilla control light, replicate 1: 848
- Renilla control light, replicate 2: 2026
- outcome: inactive

galene #1
- firefly reporter light, replicate 1: 4260
- Renilla control light, replicate 1: 2359
- outcome: inactive

galene #2
- firefly reporter light, replicate 1: 7072
- Renilla control light, replicate 1: 3925
- outcome: inactive

CG14253
- firefly reporter light, replicate 1: 8836
- Renilla control light, replicate 1: 2627
- outcome: inactive

Ir20a
- firefly reporter light, replicate 1: 14261
- Renilla control light, replicate 1: 9138
- outcome: inactive

GluRIID
- firefly reporter light, replicate 1: 20569
- Renilla control light, replicate 1: 4605
- outcome: inactive

eEF1beta
- firefly reporter light, replicate 1: 10466
- Renilla control light, replicate 1: 3648
- outcome: inactive

Pink1
- firefly reporter light, replicate 1: 1922
- firefly reporter light, replicate 2: 5907
- Renilla control light, replicate 1: 641
- Renilla control light, replicate 2: 2072
- outcome: inactive

E(spl)m8-HLH
- firefly reporter light, replicate 1: 27185
- Renilla control light, replicate 1: 19712
- outcome: inactive

beat-VI #1
- firefly reporter light, replicate 1: 7229
- Renilla control light, replicate 1: 2946
- outcome: inactive

beat-VI #2
- firefly reporter light, replicate 1: 7696
- Renilla control light, replicate 1: 3268
- outcome: inactive

CG34056
- firefly reporter light, replicate 1: 3994
- Renilla control light, replicate 1: 2378
- outcome: inactive

CG7907
- reporter change call, replicate 1: Wg reporter activity lowered
- firefly reporter light, replicate 1: 40838
- Renilla control light, replicate 1: 7893
- outcome: inactive

CG6550
- firefly reporter light, replicate 1: 15701
- Renilla control light, replicate 1: 1687
- outcome: inactive

CG42552 (retired record)
- firefly reporter light, replicate 1: 2697
- Renilla control light, replicate 1: 1036
- outcome: inactive

Gr93c
- firefly reporter light, replicate 1: 34039
- Renilla control light, replicate 1: 5834
- outcome: inactive

CG1628
- firefly reporter light, replicate 1: 3639
- firefly reporter light, replicate 2: 5504
- Renilla control light, replicate 1: 1224
- Renilla control light, replicate 2: 2314
- outcome: inactive

HGTX #1
- firefly reporter light, replicate 1: 2872
- Renilla control light, replicate 1: 1530
- outcome: inactive

HGTX #2
- firefly reporter light, replicate 1: 5132
- Renilla control light, replicate 1: 2850
- outcome: inactive

Pxn
- firefly reporter light, replicate 1: 21844
- firefly reporter light, replicate 2: 7.28e5
- Renilla control light, replicate 1: 8045
- Renilla control light, replicate 2: 3.79e5
- outcome: inactive

Cp7Fc
- firefly reporter light, replicate 1: 20768
- Renilla control light, replicate 1: 8192
- outcome: inactive

mthl6
- firefly reporter light, replicate 1: 1912
- firefly reporter light, replicate 2: 9280
- Renilla control light, replicate 1: 1133
- Renilla control light, replicate 2: 3018
- outcome: inactive

CG34049
- firefly reporter light, replicate 1: 16690
- Renilla control light, replicate 1: 10416
- outcome: inactive

ND-49
- firefly reporter light, replicate 1: 17611
- Renilla control light, replicate 1: 11984
- outcome: inactive

E(Pc) #1
- reporter change call, replicate 1: Wg reporter activity raised
- firefly reporter light, replicate 1: 27911
- Renilla control light, replicate 1: 12868
- outcome: inactive

E(Pc) #2
- reporter change call, replicate 1: Wg reporter activity raised
- firefly reporter light, replicate 1: 20925
- Renilla control light, replicate 1: 1936
- outcome: active

CG15578
- firefly reporter light, replicate 1: 19843
- Renilla control light, replicate 1: 9520
- outcome: inactive

CG4744
- firefly reporter light, replicate 1: 17328
- Renilla control light, replicate 1: 5031
- outcome: inactive

CG9400
- firefly reporter light, replicate 1: 1549
- firefly reporter light, replicate 2: 4626
- Renilla control light, replicate 1: 656
- Renilla control light, replicate 2: 2089
- outcome: inactive

sle
- firefly reporter light, replicate 1: 4530
- Renilla control light, replicate 1: 1685
- outcome: inactive

Lime
- firefly reporter light, replicate 1: 5936
- firefly reporter light, replicate 2: 16075
- Renilla control light, replicate 1: 1728
- Renilla control light, replicate 2: 5271
- outcome: inactive

Or19b + Or19a
- firefly reporter light, replicate 1: 6.50e5
- firefly reporter light, replicate 2: 6.26e5
- Renilla control light, replicate 1: 2.33e5
- Renilla control light, replicate 2: 1.26e5
- outcome: inactive
